No constants are given. Whether binding was seen depends on the method and setting. Binding seen in cells or lysates may run through a third protein. Binding calls can cover weak binding; strength is not graded here. Where a sequence is shown, tags or fusion partners need not be part of it.
B1: EFEMP1 carrying a FLAG tag at the C-terminus (E-CF) (protein, UniProt Q12805 18-493)
chain: QDTEETITYTQCTDGYEWDPVRQQCKDIDECDIVPDACKGGMKCVNHYGGYLCLPKTAQIIVNNEQPQQETQPAEGTSGATTGVVAASSMATSGVLPGGGFVASAAAVAGPEMQTGRNNFVIRRNPADPQRIPSNPSHRIQCAAGYEQSEHNVCQDIDECTAGTHNCRADQVCINLRGSFACQCPPGYQKRGEQCVDIDECTIPPYCHQRCVNTPGSFYCQCSPGFQLAANNYTCVDINECDASNQCAQQCYNILGSFICQCNQGYELSSDRLNCEDIDECRTSSYLCQYQCVNEPGKFSCMCPQGYQVVRSRTCQDINECETTNECREDEMCWNYHGGFRCYPRNPCQDPYILTPENRCVCPVSNAMCRELPQSIVYKYMSIRSDRSVPSDIFQIQATTIYANTINTFRIKSGNENGEFYLRQTSPVSAMLVLVKSLSGPREHIVDLEMLTVSSIGTFRTSSVLRLTIIVGPFSF
B2: EFEMP1 carrying a FLAG tag at the N-terminus (E-NF) (protein, UniProt Q12805 18-493)
chain: B1 chain

Columns and labels:
[1] = target: T1, EFEMP1 carrying a FLAG tag at the C-terminus (E-CF) (human) (UniProt Q12805); test: co-IP; whole-cell lysates in RIPA buffer (~500 ug protein in 260 ul) of U251 stable EFEMP1 transfectants; precipitated with 40 ul mouse anti-FLAG M2 affinity gel, 4 °C overnight; immunoblot for EGFR and FLAG; mouse IgG agarose as negative control
T1 sequence: B1 chain

[2] = target: T2, EFEMP1 carrying a FLAG tag at the N-terminus (E-NF) (human) (UniProt Q12805); test: as above
T2 sequence: B1 chain

[3] = target: EGFR (human (endogenous in U251)) (UniProt P00533); test: co-IP; whole-cell lysates in RIPA buffer (~500 ug protein in 260 ul) of U251 stable EFEMP1 transfectants; precipitated with 5 ug rabbit anti-EGFR antibody and protein A/G beads, 4 °C overnight; immunoblot for EFEMP1 and FLAG; rabbit IgG agarose as negative control

Molecule	binding [1]	binding [2]	binding [3]
EGFR (from UniProt P00533) (receptor)	binds	binds	–
B1	–	–	binds
B2	–	–	binds

Source: article PMC4278290
